Data taken from publication PMC2909264.
These are yes or no findings as the source states them, for the method shown. Binding seen in cells or lysates may run through a third protein. Some binding calls cover weakened binding; strength is not graded here. For part of these data: Sequences can lack the tags named with a protein.

Chains of the proteins cited; added tags and fusions are not shown. Lines headed by an entry give the natural chain unless they say otherwise; changes in a name come on top.
UniProt Q96EB6: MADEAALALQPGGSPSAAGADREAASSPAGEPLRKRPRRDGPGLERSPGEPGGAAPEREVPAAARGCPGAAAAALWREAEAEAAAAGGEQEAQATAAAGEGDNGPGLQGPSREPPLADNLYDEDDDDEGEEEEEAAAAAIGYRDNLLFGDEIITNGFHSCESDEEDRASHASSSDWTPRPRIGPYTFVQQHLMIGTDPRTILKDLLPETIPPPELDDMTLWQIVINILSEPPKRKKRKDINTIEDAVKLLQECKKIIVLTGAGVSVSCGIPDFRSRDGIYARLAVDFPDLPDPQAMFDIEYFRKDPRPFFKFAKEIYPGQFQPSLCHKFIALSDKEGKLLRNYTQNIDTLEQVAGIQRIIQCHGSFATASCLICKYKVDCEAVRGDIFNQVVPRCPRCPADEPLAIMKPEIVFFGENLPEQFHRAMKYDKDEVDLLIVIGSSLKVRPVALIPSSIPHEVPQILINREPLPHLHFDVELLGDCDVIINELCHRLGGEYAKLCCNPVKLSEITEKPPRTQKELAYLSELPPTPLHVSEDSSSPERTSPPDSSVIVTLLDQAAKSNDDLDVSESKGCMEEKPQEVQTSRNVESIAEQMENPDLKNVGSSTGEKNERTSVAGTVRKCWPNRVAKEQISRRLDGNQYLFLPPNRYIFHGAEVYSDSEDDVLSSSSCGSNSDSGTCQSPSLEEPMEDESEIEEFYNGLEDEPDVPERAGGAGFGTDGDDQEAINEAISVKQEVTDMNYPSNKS
UniProt O70161: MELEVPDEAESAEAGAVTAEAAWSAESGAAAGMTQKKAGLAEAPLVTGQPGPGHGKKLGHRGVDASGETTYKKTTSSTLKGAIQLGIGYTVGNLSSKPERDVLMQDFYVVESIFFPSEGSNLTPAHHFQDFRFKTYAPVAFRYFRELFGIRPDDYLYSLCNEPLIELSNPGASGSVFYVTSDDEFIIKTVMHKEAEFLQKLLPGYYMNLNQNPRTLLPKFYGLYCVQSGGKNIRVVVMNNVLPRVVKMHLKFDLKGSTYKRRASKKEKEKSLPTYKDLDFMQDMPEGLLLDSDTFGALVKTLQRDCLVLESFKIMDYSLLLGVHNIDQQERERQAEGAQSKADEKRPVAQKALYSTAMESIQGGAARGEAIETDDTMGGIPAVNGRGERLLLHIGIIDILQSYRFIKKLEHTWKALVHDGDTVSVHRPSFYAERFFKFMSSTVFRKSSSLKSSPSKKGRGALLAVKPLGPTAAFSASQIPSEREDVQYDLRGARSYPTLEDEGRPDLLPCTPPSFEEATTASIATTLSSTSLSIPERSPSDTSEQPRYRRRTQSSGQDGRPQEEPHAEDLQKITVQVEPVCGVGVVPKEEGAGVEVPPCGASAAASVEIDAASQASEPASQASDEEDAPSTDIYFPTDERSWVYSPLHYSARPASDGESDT
UniProt O60331: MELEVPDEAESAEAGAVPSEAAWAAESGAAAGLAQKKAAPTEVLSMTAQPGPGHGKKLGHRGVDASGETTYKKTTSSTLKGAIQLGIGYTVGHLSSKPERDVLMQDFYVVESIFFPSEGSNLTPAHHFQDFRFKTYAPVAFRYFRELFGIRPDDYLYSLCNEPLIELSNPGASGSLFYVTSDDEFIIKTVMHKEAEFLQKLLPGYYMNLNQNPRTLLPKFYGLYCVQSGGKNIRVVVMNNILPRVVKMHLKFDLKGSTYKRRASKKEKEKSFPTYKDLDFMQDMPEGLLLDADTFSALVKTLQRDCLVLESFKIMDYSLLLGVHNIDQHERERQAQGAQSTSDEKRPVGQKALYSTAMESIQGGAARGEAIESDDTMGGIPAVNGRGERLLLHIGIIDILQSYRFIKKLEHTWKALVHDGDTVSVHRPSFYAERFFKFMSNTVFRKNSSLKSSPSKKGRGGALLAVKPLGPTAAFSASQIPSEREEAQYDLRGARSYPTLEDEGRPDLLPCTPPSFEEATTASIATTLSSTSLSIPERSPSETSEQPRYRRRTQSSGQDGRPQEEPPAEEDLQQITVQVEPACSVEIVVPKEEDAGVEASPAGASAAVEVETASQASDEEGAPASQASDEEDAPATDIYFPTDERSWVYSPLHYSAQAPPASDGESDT

Legend:
Flag-tagged SIRT1 = molecular target: T1, Flag-tagged SIRT1 (UniProt Q923E4); test: co-IP; mapping with deletion mutants of PIP5Kγ; transfected HEK293T cells lysed in 25 mM Tris-HCl pH 8.0, 100 mM NaCl, 2 mM EDTA, 0.2% Triton X-100 with protease inhibitors, trichostatin A and NAM; antibodies and tags of this panel not told
T1 sequence: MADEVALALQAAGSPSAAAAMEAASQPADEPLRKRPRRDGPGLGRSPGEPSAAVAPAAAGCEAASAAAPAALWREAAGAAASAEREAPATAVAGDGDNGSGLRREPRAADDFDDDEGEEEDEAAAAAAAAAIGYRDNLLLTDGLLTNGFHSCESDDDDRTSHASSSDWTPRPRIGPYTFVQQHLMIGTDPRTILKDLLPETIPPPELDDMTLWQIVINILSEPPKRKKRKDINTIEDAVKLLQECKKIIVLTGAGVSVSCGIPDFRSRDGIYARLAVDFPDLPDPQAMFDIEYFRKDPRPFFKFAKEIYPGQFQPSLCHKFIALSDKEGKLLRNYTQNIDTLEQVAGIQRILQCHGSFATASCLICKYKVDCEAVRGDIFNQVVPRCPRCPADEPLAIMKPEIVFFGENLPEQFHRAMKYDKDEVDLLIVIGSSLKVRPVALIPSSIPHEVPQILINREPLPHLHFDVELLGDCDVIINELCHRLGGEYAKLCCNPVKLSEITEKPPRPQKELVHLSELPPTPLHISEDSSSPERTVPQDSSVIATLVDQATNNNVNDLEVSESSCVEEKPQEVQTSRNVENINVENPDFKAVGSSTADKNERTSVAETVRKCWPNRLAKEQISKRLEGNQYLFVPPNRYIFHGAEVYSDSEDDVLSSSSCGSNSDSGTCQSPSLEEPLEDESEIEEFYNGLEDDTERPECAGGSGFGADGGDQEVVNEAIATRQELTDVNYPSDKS

[1] = molecular target: T2, SIRT1 of the pituitary gland (cytosolic fraction) (mouse (endogenous in pituitary gland)) (UniProt Q923E4); test: co-IP; cytosolic fraction of the pituitary gland, antibodies specific for SIRT1 and for PIP5Kγ, rabbit IgG as negative control
T2 sequence: T1 sequence

[2] = molecular target: endogenous SIRT1 (HEK293T cells) (human (endogenous in HEK293T)) (UniProt Q96EB6); test: co-IP; endogenous proteins of HEK293T cells, antibodies to SIRT1 and to PIP5Ks

PIP5Kγ (expressed from plasmid, parent of the deletion mutants) (from UniProt O70161 1-661) (enzyme)
binding (Flag-tagged SIRT1): binds

PIP5Kγ of the pituitary gland (cytosolic fraction) (from UniProt O70161 1-661) (enzyme)
binding [1]: binds

endogenous PIP5Kγ (HEK293T cells) (from UniProt O60331 1-668) (enzyme)
binding [2]: binds
